In US20110218232A1:
Results are given in words; binding and its absence hold for the method and conditions named. In cells and extracts the contact can be indirect. Some entries that bind do so weakly or less than the wild type.

By UniProt entry, the sequences of proteins in these tests, tags left out.
UniProt B0LPN4: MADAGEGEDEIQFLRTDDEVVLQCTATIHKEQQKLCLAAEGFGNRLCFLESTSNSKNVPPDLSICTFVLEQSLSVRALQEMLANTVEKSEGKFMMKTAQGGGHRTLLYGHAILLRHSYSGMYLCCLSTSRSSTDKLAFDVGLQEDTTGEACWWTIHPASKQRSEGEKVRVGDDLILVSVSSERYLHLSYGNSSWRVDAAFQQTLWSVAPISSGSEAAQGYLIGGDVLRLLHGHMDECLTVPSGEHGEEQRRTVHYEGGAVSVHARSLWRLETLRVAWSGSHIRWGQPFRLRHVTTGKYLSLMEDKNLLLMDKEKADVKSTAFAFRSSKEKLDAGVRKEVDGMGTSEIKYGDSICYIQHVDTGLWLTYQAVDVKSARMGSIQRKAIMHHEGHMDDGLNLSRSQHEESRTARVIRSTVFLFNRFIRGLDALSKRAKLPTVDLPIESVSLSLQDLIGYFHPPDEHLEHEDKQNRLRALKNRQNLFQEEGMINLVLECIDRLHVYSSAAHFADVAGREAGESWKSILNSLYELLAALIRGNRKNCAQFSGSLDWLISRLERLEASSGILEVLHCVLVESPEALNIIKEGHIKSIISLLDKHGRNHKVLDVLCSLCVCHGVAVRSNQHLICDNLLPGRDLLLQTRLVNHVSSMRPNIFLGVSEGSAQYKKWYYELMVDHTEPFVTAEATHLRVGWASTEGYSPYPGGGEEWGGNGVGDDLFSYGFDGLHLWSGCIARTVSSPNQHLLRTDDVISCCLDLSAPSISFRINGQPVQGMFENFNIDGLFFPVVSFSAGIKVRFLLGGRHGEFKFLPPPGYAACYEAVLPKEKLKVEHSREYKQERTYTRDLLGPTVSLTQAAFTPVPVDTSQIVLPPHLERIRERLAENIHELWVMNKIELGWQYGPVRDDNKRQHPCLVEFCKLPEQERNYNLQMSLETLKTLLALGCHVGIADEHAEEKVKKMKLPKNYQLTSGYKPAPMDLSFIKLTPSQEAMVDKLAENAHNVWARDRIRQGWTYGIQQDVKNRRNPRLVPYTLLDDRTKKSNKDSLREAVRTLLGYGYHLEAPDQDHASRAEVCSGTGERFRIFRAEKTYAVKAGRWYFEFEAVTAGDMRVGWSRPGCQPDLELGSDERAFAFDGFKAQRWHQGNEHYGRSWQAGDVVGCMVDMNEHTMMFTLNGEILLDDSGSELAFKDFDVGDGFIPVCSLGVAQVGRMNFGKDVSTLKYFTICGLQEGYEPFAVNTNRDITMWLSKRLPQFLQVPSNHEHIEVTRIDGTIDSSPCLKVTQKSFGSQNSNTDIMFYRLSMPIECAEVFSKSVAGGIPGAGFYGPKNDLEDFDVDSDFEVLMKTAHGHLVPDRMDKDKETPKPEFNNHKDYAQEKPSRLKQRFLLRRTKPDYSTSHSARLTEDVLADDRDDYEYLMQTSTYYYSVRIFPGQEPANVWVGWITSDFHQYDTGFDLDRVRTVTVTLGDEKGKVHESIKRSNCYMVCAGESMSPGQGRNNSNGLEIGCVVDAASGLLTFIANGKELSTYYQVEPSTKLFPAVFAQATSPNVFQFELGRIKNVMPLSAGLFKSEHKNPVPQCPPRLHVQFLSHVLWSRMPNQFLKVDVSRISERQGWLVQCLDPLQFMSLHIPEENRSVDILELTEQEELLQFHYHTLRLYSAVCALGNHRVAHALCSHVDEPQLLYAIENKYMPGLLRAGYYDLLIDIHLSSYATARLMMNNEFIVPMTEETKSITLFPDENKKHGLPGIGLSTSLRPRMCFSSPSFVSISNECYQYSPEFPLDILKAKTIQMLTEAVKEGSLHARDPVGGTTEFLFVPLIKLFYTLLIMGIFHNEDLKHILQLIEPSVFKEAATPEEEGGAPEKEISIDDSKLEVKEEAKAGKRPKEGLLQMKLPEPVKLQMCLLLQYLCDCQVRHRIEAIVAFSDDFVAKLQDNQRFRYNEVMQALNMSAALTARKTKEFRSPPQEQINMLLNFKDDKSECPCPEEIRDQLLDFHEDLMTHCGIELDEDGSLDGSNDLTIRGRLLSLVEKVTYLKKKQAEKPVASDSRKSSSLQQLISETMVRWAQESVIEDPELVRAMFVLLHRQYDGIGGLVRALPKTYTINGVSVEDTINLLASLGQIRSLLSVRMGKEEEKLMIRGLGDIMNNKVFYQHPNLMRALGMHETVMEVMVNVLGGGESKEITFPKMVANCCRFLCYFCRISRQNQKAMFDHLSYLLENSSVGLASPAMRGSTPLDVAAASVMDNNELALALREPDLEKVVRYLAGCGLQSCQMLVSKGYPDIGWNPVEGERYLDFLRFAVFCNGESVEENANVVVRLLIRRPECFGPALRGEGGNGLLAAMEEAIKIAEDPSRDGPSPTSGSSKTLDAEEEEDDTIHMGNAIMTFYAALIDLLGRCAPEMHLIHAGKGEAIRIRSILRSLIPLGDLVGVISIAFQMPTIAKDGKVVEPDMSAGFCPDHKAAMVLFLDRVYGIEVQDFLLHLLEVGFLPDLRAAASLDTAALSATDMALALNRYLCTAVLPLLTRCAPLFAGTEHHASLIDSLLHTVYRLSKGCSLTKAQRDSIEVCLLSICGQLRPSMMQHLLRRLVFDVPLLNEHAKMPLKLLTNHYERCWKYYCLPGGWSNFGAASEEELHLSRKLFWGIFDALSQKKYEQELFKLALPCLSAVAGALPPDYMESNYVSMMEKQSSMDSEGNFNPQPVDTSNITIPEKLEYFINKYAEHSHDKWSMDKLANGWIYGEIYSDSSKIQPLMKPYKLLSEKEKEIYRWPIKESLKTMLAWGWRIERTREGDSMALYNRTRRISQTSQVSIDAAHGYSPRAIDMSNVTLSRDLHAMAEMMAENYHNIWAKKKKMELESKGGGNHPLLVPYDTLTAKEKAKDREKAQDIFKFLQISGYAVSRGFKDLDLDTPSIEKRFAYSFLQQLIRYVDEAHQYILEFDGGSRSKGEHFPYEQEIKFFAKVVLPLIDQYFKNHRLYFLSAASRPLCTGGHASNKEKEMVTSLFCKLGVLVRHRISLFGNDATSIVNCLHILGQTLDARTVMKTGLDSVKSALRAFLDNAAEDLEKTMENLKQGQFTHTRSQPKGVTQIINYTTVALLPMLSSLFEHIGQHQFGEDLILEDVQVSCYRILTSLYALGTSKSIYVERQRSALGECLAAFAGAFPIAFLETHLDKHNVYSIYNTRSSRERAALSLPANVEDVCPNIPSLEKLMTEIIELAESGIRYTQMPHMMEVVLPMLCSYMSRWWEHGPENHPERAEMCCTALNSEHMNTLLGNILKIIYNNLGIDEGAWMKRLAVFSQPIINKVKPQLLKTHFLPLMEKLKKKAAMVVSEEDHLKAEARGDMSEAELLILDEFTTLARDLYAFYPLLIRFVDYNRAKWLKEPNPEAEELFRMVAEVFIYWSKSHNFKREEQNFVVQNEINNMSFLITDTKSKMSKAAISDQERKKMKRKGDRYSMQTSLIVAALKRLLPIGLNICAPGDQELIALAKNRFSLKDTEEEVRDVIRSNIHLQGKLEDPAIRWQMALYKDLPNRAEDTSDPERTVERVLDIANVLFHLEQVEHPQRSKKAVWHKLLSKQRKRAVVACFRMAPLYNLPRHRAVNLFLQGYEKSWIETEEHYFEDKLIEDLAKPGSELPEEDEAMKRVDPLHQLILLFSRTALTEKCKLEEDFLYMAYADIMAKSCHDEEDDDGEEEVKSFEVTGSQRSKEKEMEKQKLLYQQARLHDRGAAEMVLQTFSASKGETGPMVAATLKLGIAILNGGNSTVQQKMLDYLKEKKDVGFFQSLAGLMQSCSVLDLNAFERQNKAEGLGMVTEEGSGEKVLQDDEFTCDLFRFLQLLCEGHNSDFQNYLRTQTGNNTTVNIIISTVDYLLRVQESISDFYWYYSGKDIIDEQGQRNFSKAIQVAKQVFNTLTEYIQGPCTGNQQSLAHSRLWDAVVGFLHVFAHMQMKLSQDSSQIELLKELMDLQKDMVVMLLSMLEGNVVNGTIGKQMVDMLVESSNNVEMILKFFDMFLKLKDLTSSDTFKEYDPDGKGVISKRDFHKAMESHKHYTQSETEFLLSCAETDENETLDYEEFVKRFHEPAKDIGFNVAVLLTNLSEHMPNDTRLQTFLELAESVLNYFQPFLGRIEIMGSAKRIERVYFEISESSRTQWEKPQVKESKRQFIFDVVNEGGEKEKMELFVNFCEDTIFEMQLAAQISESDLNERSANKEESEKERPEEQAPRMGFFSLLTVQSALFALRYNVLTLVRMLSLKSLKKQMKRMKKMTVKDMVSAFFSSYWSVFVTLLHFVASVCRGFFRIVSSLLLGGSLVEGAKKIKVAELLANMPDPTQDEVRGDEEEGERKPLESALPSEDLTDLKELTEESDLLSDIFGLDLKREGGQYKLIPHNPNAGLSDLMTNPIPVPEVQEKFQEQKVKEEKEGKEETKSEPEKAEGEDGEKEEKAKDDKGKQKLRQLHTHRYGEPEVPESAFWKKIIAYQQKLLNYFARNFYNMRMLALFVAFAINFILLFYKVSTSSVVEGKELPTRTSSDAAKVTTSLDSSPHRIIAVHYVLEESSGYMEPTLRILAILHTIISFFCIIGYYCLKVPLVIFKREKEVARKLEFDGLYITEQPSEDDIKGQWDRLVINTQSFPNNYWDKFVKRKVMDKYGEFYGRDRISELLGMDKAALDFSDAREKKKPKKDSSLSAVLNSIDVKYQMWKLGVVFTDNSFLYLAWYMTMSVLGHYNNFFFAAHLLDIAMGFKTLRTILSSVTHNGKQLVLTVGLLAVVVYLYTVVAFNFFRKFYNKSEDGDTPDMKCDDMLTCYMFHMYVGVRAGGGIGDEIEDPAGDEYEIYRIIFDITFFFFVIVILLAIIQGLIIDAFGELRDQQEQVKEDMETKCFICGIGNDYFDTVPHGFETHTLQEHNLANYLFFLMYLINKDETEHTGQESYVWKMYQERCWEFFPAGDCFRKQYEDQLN
UniProt P97534: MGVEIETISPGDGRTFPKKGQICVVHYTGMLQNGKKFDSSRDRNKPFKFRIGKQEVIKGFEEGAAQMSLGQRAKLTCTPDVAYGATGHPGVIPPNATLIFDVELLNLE

What was measured:
[1] = target: RyR2 (ryanodine receptor 2), rat (rat) (UniProt B0LPN4); test: co-immunoprecipitation of RyR2 and immunoblot for calstabin, shMRP4 treated cardiac myocytes
[2] = target: RyR2 (ryanodine receptor 2), rat (rat) (UniProt B0LPN4); test: co-immunoprecipitation of RyR2 and immunoblot for calstabin, adult rat ventricular myocytes infected with AdshMRP4 vs AdshLuc

- binding [1]: binds
- binding [2]: binds
Substance: calstabin2 (FKBP12.6), rat (from UniProt P97534 1-108)
